Measurements as given in patent US11180789B2, “Method for bioconversion of mogroside extracts into siamenoside I” (National Taiwan University, priority 2019, dated 2021).
The name of at least one read-out is uncertain. Some results were stated once for a whole list of compounds, not compound by compound.

Columns and labels:
[1] = β-Glucosidase activity of recombinant Exg1 proteins on oNPG; type: biochemical; conditions: substrate oNPG
[2] = β-Glucosidase activity, pH and temperature optimum and stability of recombinant Exg1 proteins on pNPG; type: biochemical
Method: The optimal conditions for β-glucosidase activity were determined. The optimum pH was obtained by monitoring enzyme activity at a range of pH levels (from pH 3 to pH 9) in the reaction buffer. Incubation was carried out at 60° C. for 30 min. To analyze enzyme stability, the same buffer system and pH range were used, however, the reactions were performed at 4° C. for 1 h. The optimum temperature was determined in 20 mM acetate buffer at pH 5 in a range of temperatures from 20° C. to 90° C. For temperature stability analysis, β-glucosidase was extracted and activity was monitored following 1 h incubation in 20 mM acetate buffer, pH 5. […] The enzyme and substrate mixture were incubated under optimum enzymatic reactions conditions of 60° C., pH 5. The f-glucosidase activity was determined by measuring the levels of p-nitrophenol (pNP) or o-nitrophenol (oNP) released from pNPG or oNPG after the glucose was hydrolyzed by glucosidase. The released pNP or oNP was detected at a wavelength of 405 nm and calibrated with standard curves. Mogroside conversion was stopped by the addition of one volume of pure methanol at specific time points. The converted products were then purified for HPLC-MS/MS analysis.

B1: recombinant ScExg1 (rScExg1), Exg1p of Saccharomyces cerevisiae (Saccharomyces cerevisiae S288C) (protein)
chain: YYDYDHGSLGEPIRGVNIGGWLLLEPYITPSLFEAFRTNDDNDEGIPVDEYHFCQYLGKDLAKSRLQSHWSTFYQEQDFANIASQGFNLVRIPIGYWAFQTLDDDPYVSGLQESYLDQAIGWARNNSLKVWVDLHGAAGSQNGFDNSGLRDSYKFLEDSNLAVTTNVLNYILKKYSAEEYLDTVIGIELINEPLGPVLDMDKMKNDYLAPAYEYLRNNIKSDQVIIIHDAFQPYNYWDDFMTENDGYWGVTIDHHHYQVFASDQLERSIDEHIKVACEWGTGVLNESHWTVCGEFAAALTDCTKWLNSVGFGARYDGSWVNGDQTSSYIGSCANNDDIAYWSDERKENTRRYVEAQLDAFEMRGGWIIWCYKTESSLEWDAQRLMFNGLFPQPLTDRKYPNQCGTISN
With B1 the Kcat/Km [1] was 546 ± 15 M⁻¹ s⁻¹, the temperature of stability ([2]; pNPG) was “below 50 °C” and the Kcat/Km ([2]; substrate pNPG) was 679 ± 5 M⁻¹ s⁻¹.
